Data as given in patent US9949979B2, “Use of inhibitors of the activity or function of PI3K” (NOVARTIS AG, priority 2011, dated 2018).
Some results were stated once for a whole list of compounds, not compound by compound.

The chains behind the UniProt entries cited, without tags or fusion partners. A line that says so, or that is headed by a name, gives the form on record, which may keep a tag or linker.
UniProt O00329, with tags, fused parts or gaps limits assumed: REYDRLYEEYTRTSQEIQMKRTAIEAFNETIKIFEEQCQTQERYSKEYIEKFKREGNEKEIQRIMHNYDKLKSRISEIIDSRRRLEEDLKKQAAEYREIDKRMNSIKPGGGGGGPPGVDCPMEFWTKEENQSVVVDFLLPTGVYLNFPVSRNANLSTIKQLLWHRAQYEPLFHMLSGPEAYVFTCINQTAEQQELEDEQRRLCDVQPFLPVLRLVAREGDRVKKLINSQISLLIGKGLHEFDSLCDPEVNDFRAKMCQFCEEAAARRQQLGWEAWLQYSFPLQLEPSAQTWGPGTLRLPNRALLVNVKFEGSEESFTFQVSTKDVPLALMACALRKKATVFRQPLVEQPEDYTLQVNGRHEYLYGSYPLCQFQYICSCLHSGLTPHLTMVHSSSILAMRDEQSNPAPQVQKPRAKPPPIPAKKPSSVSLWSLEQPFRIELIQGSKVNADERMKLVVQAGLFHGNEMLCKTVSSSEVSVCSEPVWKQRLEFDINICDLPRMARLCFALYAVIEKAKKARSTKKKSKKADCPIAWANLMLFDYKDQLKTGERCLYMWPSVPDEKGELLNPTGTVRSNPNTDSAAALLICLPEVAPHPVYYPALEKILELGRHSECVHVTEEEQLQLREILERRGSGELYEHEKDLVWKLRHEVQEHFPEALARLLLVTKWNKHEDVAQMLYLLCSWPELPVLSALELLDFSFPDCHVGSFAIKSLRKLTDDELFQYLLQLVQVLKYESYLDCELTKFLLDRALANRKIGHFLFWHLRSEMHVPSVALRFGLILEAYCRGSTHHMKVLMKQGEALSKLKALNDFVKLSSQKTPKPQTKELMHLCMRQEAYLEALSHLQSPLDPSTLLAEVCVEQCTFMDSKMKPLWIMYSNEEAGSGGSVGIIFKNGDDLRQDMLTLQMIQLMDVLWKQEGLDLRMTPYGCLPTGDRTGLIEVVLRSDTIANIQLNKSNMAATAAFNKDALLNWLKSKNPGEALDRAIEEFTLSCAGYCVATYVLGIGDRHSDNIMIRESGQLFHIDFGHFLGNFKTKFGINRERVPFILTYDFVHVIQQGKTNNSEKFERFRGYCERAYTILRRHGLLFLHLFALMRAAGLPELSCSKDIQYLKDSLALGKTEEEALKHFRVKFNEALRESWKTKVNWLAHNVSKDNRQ

Molecular target: PI3K delta (Homo sapiens, UniProt O00329)
Assay: Enzymatic PI3K delta isoform inhibition (lipid kinase activity, Kinase-Glo)
Assay type: biochemical
Design: for the full-length p110-d subunit are generated and fused by overlapping PCR; His tag (C); made in house; host or cells: baculovirus; Tn5 (Trichoplusia ni) or TiniPro insect cells
Method: 1 Determination of Enzymatic PI3K Alpha and PI3K Delta Isoform Inhibition
1.1 Test of Lipid Kinase Activity
The kinase reaction is performed in a final volume of 50 μl per well of a half area COSTAR, 96 well plate. The final concentrations of ATP and phosphatidyl inositol in the assay are 5 μM and 6 μg/mL, respectively. The reaction is started by the addition of PI3 kinase, e.g. PI3 kinase δ.
p110δ. The components of the assay are added per well as follows: • 10 μl test compound in 5% DMSO per well in […]. • Total activity is determined by addition 10 μl of 5% vol/vol DMSO in the first 4 wells of column 1 and the last 4 wells of column 12. • The background is determined by addition of 10 μM control compound to the last 4 wells of column 1 and the first 4 wells of column 12. • 2 mL ‘Assay mix’ are prepared per plate: • 1.912 mL of HEPES assay buffer • 8.33 μl of 3 mM stock of ATP giving a final concentration of 5 μM per well • 1 μl of [^33P]ATP on the activity date giving 0.05 μCi per well • 30 μl of 1 mg/mL PI stock giving a final concentration of 6 μg/mL per well • 5 μl of 1 M stock MgCl2 giving a final concentration of 1 mM per well • 20 μl of the assay mix are added per well. • 2 mL ‘Enzyme mix’ are prepared per plate (x* μl PI3 kinase p110β in 2 mL of kinase buffer). […]
IC50 is determined by a four parameter curve fitting routine that comes along with “excel fit”. […]

`COc1ncc(N2CCc3ncnc(O[C@H]4CCN(c5ncccn5)C4)c3C2)cc1C(F)(F)F` [Example 66, 6-(6-Methoxy-5-trifluoromethyl-pyridin-3-yl)-4-((S)-1-pyrimidin-2-yl-pyrrolidin-3-yloxy)-5,6,7,8-tetrahydro-pyrido[4,3-d]pyrimidine] was tested, and the “selectivity for the isoform PI3Kδ against the different paralogs PI3K α and β” value was “a certain level of selectivity”.
